Taken from: PubChem BioAssay AID1671195 (Yale University, 2021)

- Test: 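Knockdowns that increase or decrease uptake of fluorescent LDL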 (primary screen)
- System: human Huh7 hepatoma cells
- Reagents: siRNA pool against human genes, 18 nM
- Time to read-out: about 2 to 2.5 days of knockdown, then 8 h LDL uptake
- Challenge: DiI-labelled LDL at 30 µg/ml for 8 h, in lipoprotein-deficient serum medium
- Measurement: 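Fluorescent LDL signal imaged in cells, scaled to the plate median, robust z-score for each replicate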
- Scale: robust z-score: higher = more LDL uptake after knockdown
- Call rule: 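Active when two or more replicates show a robust z-score above 2 or below -2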
Shown is a random part of about 22,000 reagents tested. In the full data, about 1,510 (6.9%) were called active. 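Active includes knockdowns raising or lowering LDL uptake; positive z-scores mean more uptake, negative mean less.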

| target | robust z-score, replicate 1 | robust z-score, replicate 2 | robust z-score, replicate 3 | activity call |
| --- | --- | --- | --- | --- |
| CACNG4 | -0.676 | -0.358 | -0.413 | inactive |
| CDCP2 | -0.394 | -0.77 | -0.713 | inactive |
| PPP1R26 | -1.95 | -0.835 | -1.62 | inactive |
| UBALD1 | 0.261 | 0.942 | 0.783 | inactive |
| ATP12A | 0.752 | -0.341 | 0.777 | inactive |
| SHLD1 | -0.919 | -1.27 | -0.131 | inactive |
| OTOGL | -1.28 | -0.972 | -0.829 | inactive |
| AKR1C6P | 0.676 | 0.803 | 0.872 | inactive |
| MMP26 | -0.435 | -0.0864 | 1.22 | inactive |
| MEF2C | 1.11 | 0.904 | 1.03 | inactive |
| RREB1 | -1.1 | -1.52 | -0.84 | inactive |
| RPL7P37 | 0.708 | 0.725 | -0.075 | inactive |
| LLGL1 | 1.08 | 0.474 | -0.0252 | inactive |
| FSHR | 0.106 | 0.148 | -0.0516 | inactive |
| SECISBP2L | 1.53 | -0.298 | -0.561 | inactive |
| CATSPER2 | 0.0238 | -0.53 | 0.0178 | inactive |
| KREMEN2 | -1.47 | -0.777 | -0.493 | inactive |
| YPLR6490 (retired record) | -0.908 | -0.936 | -0.823 | inactive |
| OR7G2 | -1.3 | -1.13 | -1.28 | inactive |
| HEPACAM | -1.22 | -1.21 | -1.25 | inactive |
| SH3GL1 | 0.058 | -1.23 | -0.735 | inactive |
| RNF111 | 0.423 | -0.264 | -0.287 | inactive |
| AGFG1 | 0.457 | 0.694 | 1.25 | inactive |
| MUC17 | 0.46 | -0.316 | 0.745 | inactive |
| HYPK | -0.982 | -0.833 | -2.14 | inactive |
| ATP5MC2 | -0.0161 | 0.529 | 0.21 | inactive |
| LOC401456 (retired record) | -1.27 | -1.2 | -1.06 | inactive |
| LY75 | -0.942 | -1.03 | -1.08 | inactive |
| KRT15 | -0.326 | 0.416 | -0.056 | inactive |
| OFCC1 | -0.173 | -0.401 | -0.295 | inactive |
| RETSAT | 0.0262 | -0.738 | 0.916 | inactive |
| GABRB1 | 0.69 | 1 | 0.707 | inactive |
| LINC00479 | 0.898 | 0.881 | 0.685 | inactive |
| TMEM14B | 1.34 | 0.973 | 1.04 | inactive |
| CLSTN2 | 0.178 | -0.248 | -0.626 | inactive |
| LOC389239 (retired record) | 0.859 | 0.498 | 0.767 | inactive |
| PDPK2P | 0.0668 | 0.571 | 0.109 | inactive |
| PMS2P2 | -0.487 | -0.969 | 0.0784 | inactive |
| ACAP3 | -0.211 | -0.538 | -0.584 | inactive |
| LINGO4 | 0.946 | 1.16 | 0.996 | inactive |
| BPI | 0.304 | 0.347 | 0.404 | inactive |
| LOC388624 (retired record) | 1.48 | 1.87 | 1.72 | inactive |
| GAPDHP26 | -0.142 | 1.01 | 0.738 | inactive |
| MTMR4 | -0.063 | -0.27 | -0.231 | inactive |
| LOC440789 (retired record) | -0.307 | -0.384 | -0.308 | inactive |
| PRR23C | -0.325 | -0.989 | -0.827 | inactive |
| FLJ46347 (retired record) | 0.378 | 0.32 | 0.461 | inactive |
| ACSM1 | 1.11 | -0.765 | -0.426 | inactive |
| MATN1 | 0.156 | 0.542 | 0.569 | inactive |
| PLEKHA5 | -1.93 | -0.822 | -1.54 | inactive |
| LRRC71 | 1.89 | -1.26 | 1.16 | inactive |
| PCK1 | -1.09 | 0.0671 | -0.623 | inactive |
| PIM3 | 3.87 | 1.45 | 3.77 | inactive |
| DNAJC5B | 0.874 | 0.281 | 1.09 | inactive |
| CORO1B | 0.372 | 0.642 | -0.523 | inactive |
| HP1BP3 | 1.31 | 1.36 | 0.475 | inactive |
| DDX25 | -0.242 | -1.14 | -0.536 | inactive |
| TWSG1 | 0.461 | 0.0125 | -0.0957 | inactive |
| STK32A | 2.17 | 0.0573 | 1.48 | inactive |
| WDFY4 | -1.33 | -0.18 | -1.48 | inactive |
| RAET1G | 0.655 | 0.667 | 0.474 | inactive |
| SPATA20 | -0.072 | 0.786 | 0.555 | inactive |
| ZBED11 | 0.179 | -0.42 | -0.122 | inactive |
| GSTO2 | 2.63 | 2.17 | 3.08 | active |
| ZNF528 | -0.223 | -0.393 | -0.573 | inactive |
| ALG6 | 0.764 | 2.41 | 0.842 | inactive |
| CLCNKB | 1.08 | 0.387 | 1.62 | inactive |
| LILRA1 | 0.371 | -0.962 | 0.211 | inactive |

6 successive reagents already listed, for reference:
| target | robust z-score, replicate 1 | robust z-score, replicate 2 | robust z-score, replicate 3 | activity call |
| --- | --- | --- | --- | --- |
| SPATA20 | -0.072 | 0.786 | 0.555 | inactive |
| ZBED11 | 0.179 | -0.42 | -0.122 | inactive |
| GSTO2 | 2.63 | 2.17 | 3.08 | active |
| ZNF528 | -0.223 | -0.393 | -0.573 | inactive |
| ALG6 | 0.764 | 2.41 | 0.842 | inactive |
| CLCNKB | 1.08 | 0.387 | 1.62 | inactive |
